Laboratory results as given in patent publication US20230226146A1.
These are yes or no findings as the source states them, for the method shown. Some binding calls cover weakened binding; strength is not graded here.

The chains behind the UniProt entries cited, without tags or fusion partners. Where a name states a change or a piece, a line headed by the entry shows the natural chain unless it says otherwise.
UniProt P27037: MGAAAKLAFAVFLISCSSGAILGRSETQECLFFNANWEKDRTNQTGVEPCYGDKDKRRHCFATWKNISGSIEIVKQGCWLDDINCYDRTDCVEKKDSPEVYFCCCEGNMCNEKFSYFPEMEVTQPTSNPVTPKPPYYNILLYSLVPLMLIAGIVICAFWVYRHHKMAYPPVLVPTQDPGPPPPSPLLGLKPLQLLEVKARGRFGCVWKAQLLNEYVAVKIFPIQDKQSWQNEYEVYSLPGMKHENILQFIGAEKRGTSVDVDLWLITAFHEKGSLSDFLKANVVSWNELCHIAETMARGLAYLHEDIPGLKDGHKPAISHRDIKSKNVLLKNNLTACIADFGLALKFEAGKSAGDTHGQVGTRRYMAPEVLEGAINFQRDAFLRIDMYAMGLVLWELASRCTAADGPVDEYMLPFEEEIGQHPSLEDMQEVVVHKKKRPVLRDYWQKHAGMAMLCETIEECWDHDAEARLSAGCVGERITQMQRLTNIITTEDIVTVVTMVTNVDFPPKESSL

How the values were obtained:
[1] = biological target: T1, BMP10 (UniProt O95393); experiment: similar binding assay (Biacore)
T1 sequence (looked up): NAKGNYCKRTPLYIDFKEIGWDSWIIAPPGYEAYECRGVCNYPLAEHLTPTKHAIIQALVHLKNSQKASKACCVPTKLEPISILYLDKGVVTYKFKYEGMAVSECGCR

[2] = biological target: T2, activin B (UniProt P09529); experiment: similar binding assay (Biacore)
T2 sequence (looked up): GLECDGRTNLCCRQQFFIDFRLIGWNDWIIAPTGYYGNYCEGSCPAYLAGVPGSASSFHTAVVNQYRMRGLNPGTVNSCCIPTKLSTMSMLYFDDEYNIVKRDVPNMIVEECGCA

[3] = biological target: T3, GDF8 (UniProt O14793); experiment: similar binding assay (Biacore)
T3 sequence (looked up): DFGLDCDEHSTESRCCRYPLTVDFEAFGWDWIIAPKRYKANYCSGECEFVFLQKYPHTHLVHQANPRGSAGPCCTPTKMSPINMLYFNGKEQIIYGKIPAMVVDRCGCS

[4] = biological target: T4, GDF11 (UniProt O95390); experiment: SPR (Biacore), ligand amine-coupled on CM5 chip
T4 sequence (looked up): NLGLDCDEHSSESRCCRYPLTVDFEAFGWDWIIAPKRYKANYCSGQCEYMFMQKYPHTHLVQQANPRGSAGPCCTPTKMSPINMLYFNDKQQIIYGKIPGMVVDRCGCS

Measured: binding

ActRIIA-mFc (from UniProt P27037 21-135) (Fc fusion)
binds: [1] | [2] | [3] | [4]
